Reference: patent EP3492086B1, “PHARMACEUTICAL COMPOSITION COMPRISING ZEBULARINE (1-(BETA-D-RIBOFURANOSYL)-2(1H)-PYRIMIDINONE) FOR USE IN PROMOTING REGENERATION AND WOUND HEALING” (Uniwersytet Gdanski, priority 2017, dated 2019)
At least one structure is not confirmed: it was looked up by name or label, or the drawing left a doubt.

Test system: ear pinnae of the BALB/c 2-month-old female mice
Test: Ear pinnae hole closure (ear pinnae injury model, 2 mm through-and-through holes)
Format: in vivo
Conditions: Example 4: i.p.; zebularine 1000 mg/kg 7 times, RA or 4-keto RA 16 mg/kg 6 times; followed for 42 days
Experimental: In order to evaluate the regenerative effect of zebularine, through-and-through holes of 2 mm diameter were made in the ear pinnae of the BALB/c 2-month-old female mice using scissor style ear punch. The mice were randomly divided into two groups consisting of six individuals each. The mice of one group were intraperitoneally injected with 7 doses of zebularine dissolved in saline (50 mg/ml), 1000 mg/kg body weight, on the day of injury directly after punching, and 1, 2, 3, 4, 7, 10 days after injury. The second, control group, was administered with saline.
The experiment was repeated 8 times. Collectively, the experiment was performed for 47 zebularine treated and 48 saline (vehiculum) administered control mice. […] The mean ear hole areas determined on the day 42 post injury were 0.53+/-0.3 and 1.77+/-0.48 sq mm for zebularine treated and saline controls, respectively. The results expressed as percentage of wound closure correspond to 83.2% and 43.6% for the zebularine treated and control group, respectively (Figure 2).The timeline of regeneration process is presented in Figure 3. […] The distributions of ear hole areas on the day 42 after injury were plotted as dot diagrams, where each dot represents an individual ear (Figure 4). […]

CC1=C(/C=C/C(C)=C/C=C/C(C)=C/C(=O)O)C(C)(C)CCC1 [RA, retinoic acid, reference compound]
ear hole closure (result in words): Partial ear hole closure
